The text below walks through data of article PMC10382480.

The chains behind the UniProt entries cited, without tags or fusion partners.
UniProt P25490: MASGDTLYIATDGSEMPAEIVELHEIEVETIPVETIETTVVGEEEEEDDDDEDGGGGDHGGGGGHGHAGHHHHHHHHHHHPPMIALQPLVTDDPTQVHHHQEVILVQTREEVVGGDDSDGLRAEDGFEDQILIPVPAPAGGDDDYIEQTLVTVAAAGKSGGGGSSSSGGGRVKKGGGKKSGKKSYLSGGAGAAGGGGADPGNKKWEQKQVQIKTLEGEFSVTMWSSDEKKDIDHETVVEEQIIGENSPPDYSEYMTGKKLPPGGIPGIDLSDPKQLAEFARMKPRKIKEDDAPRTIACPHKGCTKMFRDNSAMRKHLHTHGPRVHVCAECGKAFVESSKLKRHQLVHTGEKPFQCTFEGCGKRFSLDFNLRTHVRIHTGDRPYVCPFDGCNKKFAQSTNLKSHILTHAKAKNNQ
UniProt Q92769: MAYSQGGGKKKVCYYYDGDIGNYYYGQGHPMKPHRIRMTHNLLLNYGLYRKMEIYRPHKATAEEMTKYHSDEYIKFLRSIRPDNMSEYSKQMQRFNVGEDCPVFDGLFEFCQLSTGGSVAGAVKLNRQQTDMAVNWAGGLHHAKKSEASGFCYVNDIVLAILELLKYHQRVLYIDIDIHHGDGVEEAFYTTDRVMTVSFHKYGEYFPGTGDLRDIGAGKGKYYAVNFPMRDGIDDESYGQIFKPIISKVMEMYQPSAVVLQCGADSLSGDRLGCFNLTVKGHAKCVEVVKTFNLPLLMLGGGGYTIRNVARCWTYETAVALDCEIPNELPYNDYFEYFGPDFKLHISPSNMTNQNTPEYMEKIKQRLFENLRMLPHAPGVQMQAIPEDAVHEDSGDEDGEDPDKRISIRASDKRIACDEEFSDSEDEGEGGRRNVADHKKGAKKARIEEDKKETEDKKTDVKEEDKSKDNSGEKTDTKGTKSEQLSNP

Results are given in words; binding and its absence hold for the method and conditions named. Binding seen in cells or lysates may run through a third protein. Some binding calls cover weakened binding; strength is not graded here.

In one test the target is Flag-tagged YY1 (UniProt P25490). Kind of test: co-IP; HEK293T cells co-transfected with Flag-tagged YY1 and HA-tagged HDAC2 plasmids; immunoprecipitates analysed by immunoblot. Background: In western blotting, separated proteins are transferred to a membrane and probed.
Test [1] concerns the target Yin Yang 1 (YY1), endogenous in HK-2 cells (human (endogenous in HK-2)) (UniProt P25490). The test can be described thus: co-IP; endogenous proteins; total lysate of HK-2 cells treated with TNF-α for 48 h; anti-YY1 with protein A/G-agarose beads, overnight; immunoblot with anti-YY1 or anti-HDAC2.

Turning to “HA-tagged HDAC2 (from UniProt Q92769 1-488)”, in the test with Flag-tagged YY1, the binding entry is given as “binds”.
As to “histone deacetylase 2 (HDAC2), endogenous in HK-2 cells (from UniProt Q92769 1-488)”, the binding result in test [1] was “binds”.
